From patent US20230312729A1
Changes are numbered by the printed parent chain. Results are given in words; binding and its absence hold for the method and conditions named. Some binding calls cover weakened binding; strength is not graded here.

Sequences of proteins named here, by UniProt entry; tags and fusion partners are left off. Residues count along the entry.
UniProt P07766, residues 23-126: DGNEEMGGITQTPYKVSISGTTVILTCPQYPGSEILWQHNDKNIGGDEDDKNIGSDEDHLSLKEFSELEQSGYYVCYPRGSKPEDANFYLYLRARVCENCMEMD

B1: CD3.23 scFv (scFv)
scFv: ELVVTQEPSLTVSPGGTVTLTCRSSNGAVTSSNYANWVQQKPGQAPRGLIGGTNKRAPGTPARFSGSLLGGKAALTLSGVQPEDEAVYYCALWYPNLWVFGGGTKLTVLGATPPETGAETESPGETTGGSAESEPPGEGEVQLLESGGGIVQPGGSLKLSCAASGFTFNTYAMNWVRQAPGKGLEWVARIRSKYNNYATYYADSVKDRFTISRDDSKNTVYLQMNNLKTEDTAVYYCVRHENFGNSYVSWFAHWGQGTLVTVSS
B2: CD3.24 scFv (scFv)
scFv: B1 scFv with A28E, S31T, N54I
B3: CD3.25 scFv (scFv)
scFv: B1 scFv with L10H, N26T, N54I, V87E
B4: CD3.26 scFv (scFv)
scFv: B1 scFv with L10H, N26T, A28E, S31T, N54I, V87E

Molecular target: Biotinylated CD3 epsilon antigen (Creative Biomart) (UniProt P07766)
Test: BLI (ForteBio BLItz)

binding, binds:
B1, B2, B3, B4
